From PMC5329690 (International Journal of Peptides, 2017)

Assay: general procedure: Fmoc solid-phase peptide synthesis; Fmoc-Rink-amide ChemMatrix, 0.47 mmol/g; HBTU/DIEA
Settings: for difficulty met: whole synthesis, scale of the general procedure 50 μmoL

Substance: BodiFluor-O2Oc-Tat(48-60)-O2Oc-Asp(paromomycin)-amide
- outcome (conjugation step): present but in such low amounts and purity to render workup unfeasible
- difficulty met: Analytical HPLC revealed a complex mixture

Substance: Fmoc-O2Oc-Tat(48-60)-O2Oc-Asp(O-2-PhiPr)-resin
- difficulty met: gave rise to a complex array of products
